In PMC7034063:
No constants are given. Whether binding was seen depends on the method and setting. Binding seen in cells or lysates may run through a third protein. Some binding calls cover weakened binding; strength is not graded here.

Chains of the proteins cited; added tags and fusions are not shown.
UniProt O88778: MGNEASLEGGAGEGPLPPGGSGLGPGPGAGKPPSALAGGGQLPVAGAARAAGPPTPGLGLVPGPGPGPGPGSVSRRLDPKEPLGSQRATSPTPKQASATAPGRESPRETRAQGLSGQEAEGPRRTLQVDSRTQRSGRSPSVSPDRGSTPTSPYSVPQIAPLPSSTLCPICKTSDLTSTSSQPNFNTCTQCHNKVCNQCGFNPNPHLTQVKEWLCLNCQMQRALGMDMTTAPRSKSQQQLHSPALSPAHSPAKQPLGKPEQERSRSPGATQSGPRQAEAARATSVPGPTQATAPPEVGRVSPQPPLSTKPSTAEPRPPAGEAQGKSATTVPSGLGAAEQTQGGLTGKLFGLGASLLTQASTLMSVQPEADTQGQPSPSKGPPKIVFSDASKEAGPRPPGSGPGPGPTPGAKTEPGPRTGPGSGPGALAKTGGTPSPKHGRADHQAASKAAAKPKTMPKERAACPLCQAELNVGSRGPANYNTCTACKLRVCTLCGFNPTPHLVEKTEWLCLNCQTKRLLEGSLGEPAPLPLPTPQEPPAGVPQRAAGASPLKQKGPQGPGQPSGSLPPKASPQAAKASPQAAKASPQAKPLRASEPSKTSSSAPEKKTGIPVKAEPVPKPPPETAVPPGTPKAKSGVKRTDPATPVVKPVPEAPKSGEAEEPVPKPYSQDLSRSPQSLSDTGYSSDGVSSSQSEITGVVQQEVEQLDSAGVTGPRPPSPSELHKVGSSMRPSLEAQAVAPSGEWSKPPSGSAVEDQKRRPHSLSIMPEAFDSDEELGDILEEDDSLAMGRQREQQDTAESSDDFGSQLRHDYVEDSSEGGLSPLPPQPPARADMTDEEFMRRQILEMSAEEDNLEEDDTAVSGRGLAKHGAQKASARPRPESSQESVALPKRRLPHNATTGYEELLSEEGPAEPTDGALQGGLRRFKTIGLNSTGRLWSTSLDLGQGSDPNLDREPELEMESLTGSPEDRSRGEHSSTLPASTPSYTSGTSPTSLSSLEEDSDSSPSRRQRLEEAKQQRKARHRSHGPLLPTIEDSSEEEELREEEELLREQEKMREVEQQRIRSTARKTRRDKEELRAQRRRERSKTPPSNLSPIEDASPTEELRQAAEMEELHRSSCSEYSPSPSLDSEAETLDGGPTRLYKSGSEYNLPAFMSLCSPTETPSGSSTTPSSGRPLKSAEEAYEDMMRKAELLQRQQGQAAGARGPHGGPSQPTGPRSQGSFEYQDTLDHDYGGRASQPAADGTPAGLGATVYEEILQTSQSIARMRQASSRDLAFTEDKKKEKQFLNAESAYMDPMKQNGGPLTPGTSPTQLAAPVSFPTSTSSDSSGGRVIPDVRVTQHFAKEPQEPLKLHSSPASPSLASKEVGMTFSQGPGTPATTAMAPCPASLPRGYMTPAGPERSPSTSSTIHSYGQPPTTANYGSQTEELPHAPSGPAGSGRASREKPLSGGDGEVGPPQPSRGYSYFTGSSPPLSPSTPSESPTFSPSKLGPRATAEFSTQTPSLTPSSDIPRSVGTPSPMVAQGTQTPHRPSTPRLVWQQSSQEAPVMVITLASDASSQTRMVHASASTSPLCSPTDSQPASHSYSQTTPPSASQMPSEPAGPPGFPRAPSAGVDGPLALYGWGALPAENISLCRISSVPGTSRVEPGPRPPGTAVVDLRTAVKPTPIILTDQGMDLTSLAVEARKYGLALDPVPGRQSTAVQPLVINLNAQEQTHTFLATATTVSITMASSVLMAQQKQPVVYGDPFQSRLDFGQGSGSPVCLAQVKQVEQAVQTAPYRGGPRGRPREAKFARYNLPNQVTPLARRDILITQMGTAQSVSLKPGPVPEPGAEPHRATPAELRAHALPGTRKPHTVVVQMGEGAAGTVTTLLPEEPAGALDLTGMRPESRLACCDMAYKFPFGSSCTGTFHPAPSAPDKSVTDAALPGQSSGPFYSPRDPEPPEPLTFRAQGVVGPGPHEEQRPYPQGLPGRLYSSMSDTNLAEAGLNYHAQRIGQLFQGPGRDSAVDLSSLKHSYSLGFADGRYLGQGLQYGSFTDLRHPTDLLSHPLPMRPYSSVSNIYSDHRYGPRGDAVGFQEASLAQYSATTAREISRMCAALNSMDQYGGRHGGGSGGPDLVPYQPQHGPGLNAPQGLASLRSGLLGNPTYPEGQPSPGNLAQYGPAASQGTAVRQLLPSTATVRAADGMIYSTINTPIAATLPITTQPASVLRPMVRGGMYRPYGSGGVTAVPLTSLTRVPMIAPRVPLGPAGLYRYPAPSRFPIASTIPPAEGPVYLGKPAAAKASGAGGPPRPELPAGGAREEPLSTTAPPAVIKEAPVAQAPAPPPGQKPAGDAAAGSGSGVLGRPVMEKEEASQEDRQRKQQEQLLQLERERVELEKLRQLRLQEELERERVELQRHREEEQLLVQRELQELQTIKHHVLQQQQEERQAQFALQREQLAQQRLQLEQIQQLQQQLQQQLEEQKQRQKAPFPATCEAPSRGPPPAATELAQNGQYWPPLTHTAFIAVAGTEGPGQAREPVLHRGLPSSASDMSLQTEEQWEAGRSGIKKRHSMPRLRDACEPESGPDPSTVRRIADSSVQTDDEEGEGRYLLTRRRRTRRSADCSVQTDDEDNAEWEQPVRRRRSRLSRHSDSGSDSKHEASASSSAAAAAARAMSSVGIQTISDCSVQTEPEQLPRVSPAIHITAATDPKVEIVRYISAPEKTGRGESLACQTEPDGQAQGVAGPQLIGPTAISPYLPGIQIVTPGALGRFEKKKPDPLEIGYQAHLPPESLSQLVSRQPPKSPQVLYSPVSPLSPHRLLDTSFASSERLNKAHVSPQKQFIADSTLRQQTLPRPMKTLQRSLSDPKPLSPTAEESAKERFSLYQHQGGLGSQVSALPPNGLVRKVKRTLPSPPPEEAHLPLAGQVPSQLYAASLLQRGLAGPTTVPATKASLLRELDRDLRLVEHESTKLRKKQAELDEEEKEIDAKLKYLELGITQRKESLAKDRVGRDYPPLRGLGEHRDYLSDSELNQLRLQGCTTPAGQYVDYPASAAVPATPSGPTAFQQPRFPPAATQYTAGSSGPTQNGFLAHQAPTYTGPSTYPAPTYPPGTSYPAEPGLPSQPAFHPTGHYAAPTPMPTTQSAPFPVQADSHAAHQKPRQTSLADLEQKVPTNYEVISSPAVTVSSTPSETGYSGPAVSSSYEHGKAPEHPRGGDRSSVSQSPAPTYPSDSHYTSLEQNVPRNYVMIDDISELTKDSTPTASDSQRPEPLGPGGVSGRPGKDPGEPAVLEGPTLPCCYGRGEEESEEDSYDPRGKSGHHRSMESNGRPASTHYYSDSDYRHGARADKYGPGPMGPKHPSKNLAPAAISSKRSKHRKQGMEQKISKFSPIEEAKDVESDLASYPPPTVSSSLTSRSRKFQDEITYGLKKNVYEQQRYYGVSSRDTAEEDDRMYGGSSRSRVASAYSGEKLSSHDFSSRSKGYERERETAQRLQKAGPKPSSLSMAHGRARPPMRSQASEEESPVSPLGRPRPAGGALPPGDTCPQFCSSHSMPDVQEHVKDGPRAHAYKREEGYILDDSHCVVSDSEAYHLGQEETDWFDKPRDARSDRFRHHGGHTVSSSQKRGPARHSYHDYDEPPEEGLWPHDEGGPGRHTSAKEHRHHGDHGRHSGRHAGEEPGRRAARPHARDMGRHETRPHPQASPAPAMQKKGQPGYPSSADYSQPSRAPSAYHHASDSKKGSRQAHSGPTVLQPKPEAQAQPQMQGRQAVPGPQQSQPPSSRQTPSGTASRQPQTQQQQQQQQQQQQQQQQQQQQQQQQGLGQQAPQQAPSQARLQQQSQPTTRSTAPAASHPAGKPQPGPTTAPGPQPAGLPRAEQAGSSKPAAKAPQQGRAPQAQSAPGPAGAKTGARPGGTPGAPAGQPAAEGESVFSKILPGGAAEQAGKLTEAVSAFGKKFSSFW

Key:
[1] = molecular target: EGFP-CtBP1 (EGFP-tagged C-terminal binding protein 1, CtBP1-S) (UniProt Q9Z2F5); assay: co-IP; as a1, but the neurons were treated with the Pak1 inhibitor IPA3 (50 μM, 1 h) before lysis
[2] = molecular target: EGFP-CtBP1 (EGFP-tagged C-terminal binding protein 1, CtBP1-S) (UniProt Q9Z2F5); assay: co-IP; basal state; EGFP-CtBP1 precipitated with MicroMACS anti-GFP MicroBeads from lysates of cortical neurons (DIV16); lysis in 10mM Tris-HCl, 150mM NaCl, 2% SDS, 1% deoxycholate, 1% Triton X-100 with protease inhibitors and PhosStop; western blot
[3] = molecular target: EGFP-CtBP1 (EGFP-tagged C-terminal binding protein 1, CtBP1-S) (UniProt Q9Z2F5); assay: condition: only neurons treated with the Pak1 inhibitor IPA3 (50 μM, 1 h); co-IP; as a1, but the neurons were treated with the Pak1 inhibitor IPA3 (50 μM, 1 h) before lysis
[4] = molecular target: EGFP-CtBP1 (EGFP-tagged C-terminal binding protein 1, CtBP1-S) (UniProt Q9Z2F5); assay: co-IP; basal state; EGFP-CtBP1 precipitated with MicroMACS anti-GFP MicroBeads from lysates of cortical neurons (DIV16); lysis in 10mM Tris-HCl, 150mM NaCl, 2% SDS, 1% deoxycholate, 1% Triton X-100 with protease inhibitors and PhosStop; western blot; remark: listed apart in the source

| Molecule | binding [1] | binding [2] | binding [3] | binding [4] |
| --- | --- | --- | --- | --- |
| bassoon (Bsn) (from UniProt O88778 1-3938) | binds | binds weakly | – | – |
| Phospholipase D1 (PLD1) (enzyme, UniProt P70496 1-1074) MSLRSEARVNTSTLQKIAADMSNLIENLDTRELHFEGEEVEYDASPGDPTAQEACIPFSSIYNTQGFKEPNIQIYLSGCPVKAQVLEVERFTSTSRMPSVNLYTIELTHGEFTWQVKRKFKHFQEFHRELLKYKAFIRIPIPTKRHTFRRQNVKEEPREMPSLPRSSENAIQEEQFFGRRKQLEDYLTKILKMPMYRNYHATTEFLDVSQLSFIHDLGPKGLEGMIMKRSGGHRIPGVNCCGHGRACYRWSKRWLIVKDSFLLYMKPDSGAIAFVLLVDKEFRIKVGKKETETKYGLRIDNLSRTLILKCNSYRHARWWGGAIEEFIQKHGTDFLKDHRFGSYAAVHENILAKWYVNAKGYFEDIANAMEGATEEIFITDWWLSPEIFLKRPVVEGNRWRLDCILKRKAQQGVRIFIMLYKEVELALGINSEYTKRTLMRLHPNIKVMRHPDHVSSSVYLWAHHEKLVIIDQSVAFVGGIDLAYGRWDDNEHRLTDVGSVKRVTSGQSLGSLTAASVESMESLSLKDKHQSHKNEPVLKSVNDTDMKLKGIGKSRKFSKFSLYRQLHRRNLHNSDSISSVDSASSYFNHYRSHQNLIHGIKPHLKLFRPSSESEQGLTRHSADTGSIRSVQTGVGELHGETRFWHGKDYCNFVFKDWVQLDKPFADFIDRYSTPRMPWHDIGSVVHGKAARDVARHFIQRWNFTKIMKPKYRSLSYPFLLPKSQATAHELRYQVPGAVHAKAQLLRSAADWSAGIKHHEESIHAAYTHVIENSKHYIYIENQFFISCADDKVVFNKVGNAIAQRILKAHREGQRYRVYIVIPLLPGFEGDISTGGGNALQAIMHFNYRTMCRGESSILEQLKPELGNKWINYISFCGLRTHAELEGNLVTELIYVHSKLLIADDNTVIIGSANINDRSMLGKRDSEMAVIVQDTETVPSVMDGKEYQAGRFAQGLRLECFRLVLGYLSDPSEDIQDPVSDKFFKEIWVSTAARNATIYDKVFRCLPNDEVHNLIQLRDFINKPILAKEDRLRAEEELRKIRGFLVQFPFYFLSEENLLPSVGTKEAIVPMEVWT | – | – | no binding | binds |
